Taken from: PubChem BioAssay AID504791 (Drosophila RNAi Screening Center, 2011)

Test: 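Genes of the fly required for silencing by miRNA, siRNA or endo-siRNA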 (primary screen)
Cells: Drosophila S2-derived reporter cells
Reagents: long dsRNA against Drosophila genes, about 150-250 ng dsRNA per well (siRNA assay); about 80-120 ng (miRNA assay)
Timing: about 5 days (siRNA assay); about 4 days (miRNA assay)
Treatment: copper sulfate induction of reporters: 25 µM (siRNA assay); 200 mM stated (miRNA assay), 1-2 days before reading
Measurement: 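Dual luciferase assay: Renilla to firefly signal ratio in each well, scaled to the mean ratio of its plate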
Units: stable assay Renilla, run 1 in luminescence; stable assay firefly, run 1 in luminescence
Rule for the call: 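a well was a first-pass pick when its plate-scaled ratio rose above 1.5 (siRNA assay) or 1.6 (miRNA assay), or dropped below 0.6; a gene counted only if two separate dsRNAs agreed on retest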
The deposit covers about 23,000 reagents; shown is an unselected part of those with a known target gene and a result. Over the whole deposit, 199 (0.86%) are marked active. 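Plate-scaled ratios behind the calls are not deposited; printed light signals are raw; many rows marked increased or decreased are still called inactive.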 Names joined by + are all predicted targets of the reagent. The record does not give: the direction of the score.

gene knocked down | amplicon | stable siRNA reporter change | miRNA reporter change | stable assay Renilla, run 1 | stable assay firefly, run 1 | call
Ubc7 (Ubiquitin conjugating enzyme 7) | DRSC20299 | – | – | 6674 | 4.79e5 | inactive
qless | DRSC15103 | – | – | 6270 | 4.46e5 | inactive
qless | DRSC15507 | – | – | 6011 | 5.52e5 | inactive
ppk16 (pickpocket 16) | DRSC02736 | – | – | 7892 | 3.64e5 | inactive
CG3430 | DRSC02713 | – | – | 9739 | 1.88e5 | inactive
Gr64b (Gustatory receptor 64b) | DRSC08444 | – | – | 6654 | 4.57e5 | inactive
Gel (Gelsolin) | DRSC12350 | – | – | 8625 | 3.78e5 | inactive
Mink (Mitotic spindle and nuclear protein) | DRSC14291 | – | – | 9233 | 3.17e5 | inactive
betaNACtes6 (Nascent-associated complex beta-subunit-like, testis 6) | DRSC22925 | – | – | 5336 | 4.09e5 | inactive
CG12520 | DRSC09892 | – | – | 5655 | 3.20e5 | inactive
CG4927 | DRSC06903 | – | – | 6695 | 3.21e5 | inactive
CG44837 | DRSC10133 | – | – | 5103 | 2.32e5 | inactive
CG44837 | DRSC10558 | – | – | 5715 | 2.95e5 | inactive
hbt (headbutt) | DRSC02503 | – | – | 6595 | 3.76e5 | inactive
hbt (headbutt) | DRSC23270 | – | – | 2839 | 2.24e5 | inactive
Pif2 (PFTAIRE-interacting factor 2) | DRSC12525 | – | – | 7459 | 3.84e5 | inactive
baz (bazooka) | DRSC20309 | – | – | 5430 | 3.48e5 | inactive
CG13369 | DRSC18481 | – | – | 6158 | 3.23e5 | inactive
Tpi (Triose phosphate isomerase) | DRSC16888 | – | – | 9539 | 6.26e5 | inactive
mbl (muscleblind) | DRSC05657 | – | – | 6500 | 5.00e5 | inactive
mbl (muscleblind) | DRSC06449 | – | – | 8615 | 3.32e5 | inactive
mbl (muscleblind) | DRSC07651 | – | reporter ratio lowered past the hit cutoff | 6107 | 2.78e5 | inactive
mbl (muscleblind) | DRSC23188 | – | – | 3023 | 2.90e5 | inactive
CG5506 | DRSC10511 | – | – | 8924 | 4.44e5 | inactive
bam (bag of marbles) | DRSC16907 | – | – | 6539 | 3.87e5 | inactive
CG15882 | DRSC19735 | – | – | 5467 | 4.37e5 | inactive
mute (muscle wasted) | DRSC06562 | – | – | 6870 | 3.71e5 | inactive
mute (muscle wasted) | DRSC22931 | – | reporter ratio raised past the hit cutoff | 6250 | 5.45e5 | inactive
Prtl99C (Protamine-like 99C) | DRSC15049 | – | – | 6420 | 3.44e5 | inactive
CR33317 (pseudo) | DRSC02653 | – | – | 7419 | 5.03e5 | inactive
CG13847 | DRSC14697 | – | – | 6816 | 2.38e5 | inactive
CG13847 | DRSC23172 | – | – | 4391 | 2.82e5 | inactive
CG15258 | DRSC02478 | – | – | 6963 | 3.87e5 | inactive
rec (recombination-defective) | DRSC14998 | – | – | 6771 | 3.29e5 | inactive
rec (recombination-defective) | DRSC15656 | – | – | 7307 | 3.44e5 | inactive
CG15865 | DRSC19733 | – | – | 4692 | 3.61e5 | inactive
CG4259 | DRSC00645 | – | – | 7868 | 4.24e5 | inactive
Inx6 (Innexin 6) | DRSC20579 | – | – | 7619 | 4.70e5 | inactive
CG5565 | DRSC00690 | – | – | 6986 | 3.94e5 | inactive
Antdh (Antennal dehydrogenase) | DRSC20307 | – | – | 4247 | 3.43e5 | inactive
CG13983 | DRSC02315 | – | – | 8434 | 4.29e5 | inactive
CG12551 (retired record) | DRSC04857 | – | – | 5698 | 3.79e5 | inactive
CG12551 (retired record) | DRSC04864 | – | – | 5299 | 3.37e5 | inactive
CG13300 | DRSC09974 | – | – | 5326 | 2.83e5 | inactive
CG12898 | DRSC06213 | – | – | 7482 | 4.53e5 | inactive

Laid out differently: entries from further up.
CG4259 [DRSC00645] — stable assay Renilla, run 1: 7868; stable assay firefly, run 1: 4.24e5; call: inactive
Inx6 (Innexin 6) [DRSC20579] — stable assay Renilla, run 1: 7619; stable assay firefly, run 1: 4.70e5; call: inactive
CG5565 [DRSC00690] — stable assay Renilla, run 1: 6986; stable assay firefly, run 1: 3.94e5; call: inactive
Antdh (Antennal dehydrogenase) [DRSC20307] — stable assay Renilla, run 1: 4247; stable assay firefly, run 1: 3.43e5; call: inactive
CG13983 [DRSC02315] — stable assay Renilla, run 1: 8434; stable assay firefly, run 1: 4.29e5; call: inactive
CG12551 (retired record) [DRSC04857] — stable assay Renilla, run 1: 5698; stable assay firefly, run 1: 3.79e5; call: inactive
CG12551 (retired record) [DRSC04864] — stable assay Renilla, run 1: 5299; stable assay firefly, run 1: 3.37e5; call: inactive
CG13300 [DRSC09974] — stable assay Renilla, run 1: 5326; stable assay firefly, run 1: 2.83e5; call: inactive
CG12898 [DRSC06213] — stable assay Renilla, run 1: 7482; stable assay firefly, run 1: 4.53e5; call: inactive

The list goes on.
gene knocked down | amplicon | stable siRNA reporter change | miRNA reporter change | stable assay Renilla, run 1 | stable assay firefly, run 1 | call
exu (exuperantia) | DRSC07615 | – | – | 9382 | 3.36e5 | inactive
CG34327 | DRSC19517 | – | – | 5011 | 4.62e5 | inactive
CG34327 | DRSC22380 | – | – | 8792 | 5.88e5 | inactive
CG32457 | DRSC11596 | – | – | 4907 | 3.36e5 | inactive
CG32457 | DRSC21722 | – | – | 9064 | 6.64e5 | inactive
Phax (Phosphorylated adaptor for RNA export) | DRSC07066 | – | – | 8515 | 4.09e5 | inactive
ADD1 (ADD domain-containing protein 1) | DRSC07135 | – | – | 7414 | 3.61e5 | inactive
PIG-U (Phosphatidylinositol glycan anchor biosynthesis class U) | DRSC02193 | – | – | 6463 | 7.32e5 | inactive
Mapmodulin | DRSC06956 | – | – | 9698 | 2.80e5 | inactive
Hsc70-3 (Heat shock protein 70 cognate 3) | DRSC20253 | – | – | 4236 | 4.52e5 | inactive
SsRbeta (Signal sequence receptor beta) | DRSC11290 | – | – | 7588 | 2.87e5 | inactive
Act88F (Actin 88F) | DRSC14105 | reporter ratio lowered past the hit cutoff | – | 7044 | 6.86e5 | inactive
CG6607 | DRSC16073 | – | – | 6242 | 2.83e5 | inactive
nrv2 (nervana 2) | DRSC00948 | – | – | 4871 | 3.37e5 | inactive
nrv2 (nervana 2) | DRSC03383 | – | – | 12122 | 2.75e5 | inactive
glob1 (globin 1) | DRSC16959 | – | – | 10293 | 4.94e5 | inactive
CG33494 | DRSC13715 | – | – | 6195 | 4.29e5 | inactive
Amnionless | DRSC00317 | – | – | 6984 | 3.91e5 | inactive
CR13656 (pseudo) | DRSC13705 | – | – | 6095 | 5.26e5 | inactive
CR13656 (pseudo) | DRSC14656 | – | – | 7843 | 3.27e5 | inactive
Crys (Crystallin) | DRSC03294 | – | – | 26797 | 4.38e5 | inactive
rau | DRSC03125 | – | – | 1.12e5 | 1.01e5 | inactive
Eig71Eh | DRSC11155 | – | – | 7607 | 3.75e5 | inactive
Plekhm1 (Pleckstrin homology and RUN domain containing M1) | DRSC04527 | – | – | 6124 | 3.41e5 | inactive
CG31550 | DRSC12197 | – | – | 6064 | 4.23e5 | inactive
CG31550 | DRSC12198 | – | – | 7562 | 5.99e5 | inactive
superdeath (Suppressor of ER stress-induced death) | DRSC14868 | – | – | 3564 | 3.81e5 | inactive
crb (crumbs) | DRSC16927 | – | – | 11458 | 3.75e5 | inactive
CG32733 (retired record) | DRSC17481 | – | – | 4107 | 3.40e5 | inactive
mei-217 + mei-218 | DRSC20349 | – | – | 4938 | 3.53e5 | inactive
CG13575 | DRSC04211 | – | – | 5612 | 3.54e5 | inactive
CG13575 | DRSC22851 | – | – | 4536 | 4.17e5 | inactive
CG32687 | DRSC18210 | – | – | 5563 | 4.43e5 | inactive
CG32687 | DRSC18237 | – | – | 6200 | 4.30e5 | inactive
CG13896 | DRSC08366 | – | – | 6166 | 3.22e5 | inactive
Hsc70-5 (Heat shock protein 70 cognate 5) | DRSC07442 | – | – | 6198 | 4.15e5 | inactive
CG12360 (retired record) | DRSC14505 | – | – | 7302 | 5.15e5 | inactive
jagn (jagunal) | DRSC12152 | – | – | 7264 | 5.20e5 | inactive
mRpL17 (mitochondrial ribosomal protein L17) | DRSC08350 | – | – | 5118 | 3.91e5 | inactive
Ptp10D (Protein tyrosine phosphatase 10D) | DRSC20272 | – | – | 4524 | 3.78e5 | inactive
sti (sticky) | DRSC09739 | – | – | 6415 | 4.81e5 | inactive
sti (sticky) | DRSC09740 | – | – | 6044 | 3.93e5 | inactive
beta'COP (Coat Protein (coatomer) beta') | DRSC03492 | – | – | 4819 | 7.45e5 | inactive
caly (calypso) | DRSC07182 | – | – | 11358 | 4.17e5 | inactive
CG3491 | DRSC01934 | – | – | 7646 | 3.77e5 | inactive
abo (abnormal oocyte) | DRSC02926 | – | – | 7330 | 4.08e5 | inactive
Mps1 (Monopolar spindle 1) | DRSC16273 | – | – | 11139 | 3.96e5 | inactive
Pngl (PNGase-like) | DRSC04914 | – | – | 5499 | 2.98e5 | inactive
Dbx | DRSC08270 | – | – | 4296 | 2.41e5 | inactive
Dbx | DRSC08271 | – | – | 4899 | 3.33e5 | inactive
Dbx | DRSC08394 | – | – | 5083 | 3.79e5 | inactive
sturkopf | DRSC08637 | – | – | 9265 | 3.26e5 | inactive
Gr68a (Gustatory receptor 68a) | DRSC10803 | – | – | 6087 | 3.65e5 | inactive
Polr1B (RNA polymerase I subunit B) | DRSC00780 | – | – | 11722 | 5.02e5 | inactive
Alp4 (Alkaline phosphatase 4) | DRSC14116 | – | – | 6334 | 3.05e5 | inactive
TrissinR (Trissin receptor) | DRSC02334 | – | – | 8159 | 4.66e5 | inactive
TrissinR (Trissin receptor) | DRSC02335 | – | – | 9694 | 4.22e5 | inactive
TrissinR (Trissin receptor) | DRSC02336 | – | – | 9039 | 4.51e5 | inactive
CG12934 | DRSC06247 | – | – | 5779 | 2.50e5 | inactive
CG18190 | DRSC06714 | – | – | 6000 | 3.80e5 | inactive
CG3008 | DRSC00560 | – | – | 7176 | 3.93e5 | inactive
